{"source": "paper PMC4721062", "about": "“Oxadiazole-2-oxides may have other functional targets, in addition to SjTGR, through which they cause mortality in Schistosoma japonicum” (Parasites & Vectors, 2016)", "key": {"[1]": {"tested_on": "S. japonica adult worm homogenate supernatant", "assay": "NO production on incubation with worm homogenate supernatant", "design": "species or system Schistosoma japonicum", "conditions": "10 μM compound, worm homogenate (100 μg), 50 min"}, "[2]": {"assay": "Nitric oxide (NO) release on incubation with cysteine", "conditions": "10 μM compound incubated with 5 mM cysteine, 50 min, room temperature"}, "SjTGR": {"tested_on": "SjTGR", "assay": "NO production on incubation with SjTGR alone or SjTGR + NADPH", "type": "biochemical, Schistosoma japonicum", "conditions": "10 μM compound, 50 min"}}}
{"molecule": "N#Cc1c(-c2ccc(OCCCOc3ccc(-c4no[n+]([O-])c4C#N)cc3)cc2)no[n+]1[O-]", "note": "[Compound 21]", "values": [{"measurement": "NO production, Worm homogenate supernatant", "setting": "[1]", "value": "9.2 ± 1.8", "unit": "µM"}, {"measurement": "NO released", "setting": "[2]", "value": "did not release NO"}, {"measurement": "NO production, SjTGR + NADPH", "setting": "SjTGR; 15 nM SjTGR + 100 μM NADPH", "value": "5.0 ± 0.3", "unit": "µM"}, {"measurement": "NO production, SjTGR", "setting": "SjTGR; 15 nM SjTGR alone", "value": "4.8 ± 0.4", "unit": "µM"}]}
